# Some of the results follow.
# What was measured:
# Assay in all cases: glycan array binding signal (z-score within array); higher = stronger binding
# Details in all cases: glycan notation: IUPAC condensed, linker removed
# [1] = molecular target: Gal6S(b1-4)Glc
# Summary of the method: (§1)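 Arrays were curated from the Consortium for Functional Glycomics database, 3228 in total, and kept only where the protein sequence was available. Binding is expressed as a within-array Z-score. This score was averaged across arrays of the same protein sequence at different concentrations or buffers and across linkers, and negative values can be read as non-binding.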
# [2] = molecular target: Gal6S(b1-4)Glc6S
# Summary of the method: as §1
# [3] = molecular target: Gal6S(b1-4)GlcNAc
# Summary of the method: as §1
# [4] = molecular target: Gal6S(b1-4)GlcNAc6S
# Summary of the method: as §1
# [5] = molecular target: GalNAc(a1-3)Gal
# Summary of the method: as §1
# [6] = molecular target: GalNAc(a1-3)GalNAc
# Summary of the method: as §1
# [7] = molecular target: GalNAc(a1-3)GalNAc(b1-3)Gal(a1-4)Gal(b1-4)Glc
# Summary of the method: as §1
# [8] = molecular target: GalNAc(a1-3)GalNAc(b1-3)Gal(a1-4)Gal(b1-4)GlcNAc
# Summary of the method: as §1
# [9] = molecular target: GalNAc(b1-3)Gal
# Summary of the method: as §1
# [10] = molecular target: GalNAc(b1-3)Gal(a1-4)Gal(b1-4)GlcNAc
# Summary of the method: as §1
# [11] = molecular target: GalNAc(b1-3)Gal(a1-4)Gal(b1-4)GlcNAc(b1-3)Gal(b1-4)Glc
# Summary of the method: as §1
# [12] = molecular target: GalNAc(b1-3)Gal(a1-6)Gal(b1-4)Glc
# Summary of the method: as §1
# [13] = molecular target: GalNAc(b1-3)GalNAc
# Summary of the method: as §1
# [14] = molecular target: GalNAc(b1-3)GlcNAc
# Summary of the method: as §1
# [15] = molecular target: GalNAc(b1-4)Gal(b1-4)Glc
# Summary of the method: as §1
# [16] = molecular target: GalNAc(b1-4)GlcNAc
# Summary of the method: as §1
# [17] = molecular target: GalNAc(b1-4)GlcNAc(b1-2)Man
# Summary of the method: as §1
# [18] = molecular target: GalNAc(b1-4)GlcNAc(b1-2)Man(a1-3)[GalNAc(b1-4)GlcNAc(b1-2)Man(a1-6)]Man(b1-4)GlcNAc(b1-4)GlcNAc
# Summary of the method: as §1
# [19] = molecular target: GalNAc(b1-4)GlcNAc(b1-3)GalNAc(b1-4)GlcNAc
# Summary of the method: as §1
# [20] = molecular target: GalNAc(b1-4)GlcNAc6S
# Summary of the method: as §1
# [21] = molecular target: GalNAc(b1-6)GalNAc
# Summary of the method: as §1
# [22] = molecular target: GalNAc3S(b1-4)GlcNAc
# Summary of the method: as §1
# [23] = molecular target: GalNAc3S(b1-4)GlcNAc3S
# Summary of the method: as §1
# [24] = molecular target: GalNAc3S(b1-4)[Fuc(a1-3)]GlcNAc
# Summary of the method: as §1
# [25] = molecular target: GalNAc4S6S(b1-4)GlcNAc
# Summary of the method: as §1
# [26] = molecular target: GalNAc6S(b1-4)GlcNAc
# Summary of the method: as §1
# [27] = molecular target: Glc(a1-4)Glc
# Summary of the method: as §1
# [28] = molecular target: Glc(a1-4)Glc(a1-4)Glc(a1-4)Glc
# Summary of the method: as §1
# [29] = molecular target: Glc(a1-6)Glc(a1-6)Glc
# Summary of the method: as §1
# [30] = molecular target: Glc(a1-6)Glc(a1-6)Glc(a1-6)Glc
# Summary of the method: as §1
# [31] = molecular target: Glc(b1-4)Glc
# Summary of the method: as §1
# [32] = molecular target: Glc(b1-6)Glc
# Summary of the method: as §1
# [33] = molecular target: GlcA(b1-3)Gal
# Summary of the method: as §1
# [34] = molecular target: GlcA(b1-3)GlcNAc
# Summary of the method: as §1
# [35] = molecular target: GlcA(b1-6)Gal
# Summary of the method: as §1
# [36] = molecular target: GlcA3S(b1-3)Gal(b1-4)GlcNAc(b1-2)Man
# Summary of the method: as §1
# [37] = molecular target: GlcA3S(b1-3)Gal(b1-4)GlcNAc(b1-3)Gal(b1-4)Glc
# Summary of the method: as §1
binder,measurement,setting,value
Epa19 (Candida glabrata) (protein) MGSSHHHHHHSSGLVPRGSHMASSKDPTRFPIGCSPQVLKTQPGLAVKLYSYGHPVPGCSYITYQYPDFPRSGYKKERKLADITGVNGKIDIDLKPNDPCRVLTGHLPSNYNYPDTLTYTNFTMILYGYFQPKVTGYHTFNLEADDLLFMNLGAGNAFDCCKAESTLDNFGNYQSYSLWGSDYAKANITVFLVSGVYYPIRLFYVNRDNNAVIDFSFTTEFDKEKVHDFTSYFFSASDGEQCPGSV,glycan array binding signal (z-score),[1],-0.415
same,glycan array binding signal (z-score),[2],0.414
same,glycan array binding signal (z-score),[3],-0.372
same,glycan array binding signal (z-score),[4],1.08
same,glycan array binding signal (z-score),[5],-0.246
same,glycan array binding signal (z-score),[6],0.221
same,glycan array binding signal (z-score),[7],-0.569
same,glycan array binding signal (z-score),[8],0.017
same,glycan array binding signal (z-score),[9],-0.489
same,glycan array binding signal (z-score),[10],-0.192
same,glycan array binding signal (z-score),[11],-0.123
same,glycan array binding signal (z-score),[12],-0.525
same,glycan array binding signal (z-score),[13],-0.712
same,glycan array binding signal (z-score),[14],-0.112
same,glycan array binding signal (z-score),[15],0.655
same,glycan array binding signal (z-score),[16],0.542
same,glycan array binding signal (z-score),[17],-1.37
same,glycan array binding signal (z-score),[18],-0.525
same,glycan array binding signal (z-score),[19],0.743
same,glycan array binding signal (z-score),[20],0.606
same,glycan array binding signal (z-score),[21],-0.738
same,glycan array binding signal (z-score),[22],0.47
same,glycan array binding signal (z-score),[23],0.771
same,glycan array binding signal (z-score),[24],-0.282
same,glycan array binding signal (z-score),[25],1.04
same,glycan array binding signal (z-score),[26],-0.279
same,glycan array binding signal (z-score),[27],-0.715
same,glycan array binding signal (z-score),[28],0.084
same,glycan array binding signal (z-score),[29],0.064
same,glycan array binding signal (z-score),[30],0.03
same,glycan array binding signal (z-score),[31],-1.04
same,glycan array binding signal (z-score),[32],-0.409
same,glycan array binding signal (z-score),[33],1.5
same,glycan array binding signal (z-score),[34],-0.2
same,glycan array binding signal (z-score),[35],-0.286
same,glycan array binding signal (z-score),[36],1.28
same,glycan array binding signal (z-score),[37],-0.378

# Not a retest: entries from further up.
binder,measurement,setting,value
Epa19 (Candida glabrata) (protein) MGSSHHHHHHSSGLVPRGSHMASSKDPTRFPIGCSPQVLKTQPGLAVKLYSYGHPVPGCSYITYQYPDFPRSGYKKERKLADITGVNGKIDIDLKPNDPCRVLTGHLPSNYNYPDTLTYTNFTMILYGYFQPKVTGYHTFNLEADDLLFMNLGAGNAFDCCKAESTLDNFGNYQSYSLWGSDYAKANITVFLVSGVYYPIRLFYVNRDNNAVIDFSFTTEFDKEKVHDFTSYFFSASDGEQCPGSV,glycan array binding signal (z-score),[20],0.606
same,glycan array binding signal (z-score),[21],-0.738
same,glycan array binding signal (z-score),[22],0.47

# From the supplement of paper PMC8728848
